Source: paper PMC7338359
Results are given in words; binding and its absence hold for the method and conditions named. Binding seen in cells or lysates may run through a third protein. Some results given as binding are weak or reduced against the parent protein; the word gives no strength. For some assays here: Sequences can lack the tags named with a protein. One block for each molecule: values may come before it.

Sequences of proteins named here, by UniProt entry; tags and fusion partners are left off.
UniProt Q13547: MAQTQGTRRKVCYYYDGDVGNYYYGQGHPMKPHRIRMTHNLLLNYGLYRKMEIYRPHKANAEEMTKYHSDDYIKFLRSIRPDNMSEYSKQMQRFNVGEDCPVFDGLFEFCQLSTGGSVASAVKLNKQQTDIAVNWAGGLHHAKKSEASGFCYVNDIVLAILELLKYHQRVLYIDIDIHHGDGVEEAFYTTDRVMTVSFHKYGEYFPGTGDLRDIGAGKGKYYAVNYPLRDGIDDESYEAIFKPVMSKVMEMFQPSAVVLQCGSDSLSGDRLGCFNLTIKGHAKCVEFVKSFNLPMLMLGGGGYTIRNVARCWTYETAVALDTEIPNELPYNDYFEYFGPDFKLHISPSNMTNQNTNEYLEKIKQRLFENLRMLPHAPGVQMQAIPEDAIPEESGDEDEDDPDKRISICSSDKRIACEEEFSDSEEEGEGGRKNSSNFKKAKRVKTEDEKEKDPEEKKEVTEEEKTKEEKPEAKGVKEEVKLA
UniProt Q92769: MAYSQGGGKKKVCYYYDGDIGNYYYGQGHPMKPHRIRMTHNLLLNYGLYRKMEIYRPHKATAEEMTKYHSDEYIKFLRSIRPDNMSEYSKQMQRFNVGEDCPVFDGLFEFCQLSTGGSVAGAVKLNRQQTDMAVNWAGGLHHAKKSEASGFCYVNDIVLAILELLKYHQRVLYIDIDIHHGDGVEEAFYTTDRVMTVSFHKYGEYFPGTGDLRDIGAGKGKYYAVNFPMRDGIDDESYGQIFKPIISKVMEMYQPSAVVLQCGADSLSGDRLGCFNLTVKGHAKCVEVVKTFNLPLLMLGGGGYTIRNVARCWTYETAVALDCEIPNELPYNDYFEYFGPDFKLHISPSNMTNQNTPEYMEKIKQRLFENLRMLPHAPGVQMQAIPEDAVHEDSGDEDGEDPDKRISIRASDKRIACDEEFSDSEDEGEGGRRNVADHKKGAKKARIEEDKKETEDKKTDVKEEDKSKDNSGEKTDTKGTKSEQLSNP

Columns and labels:
[1] = molecular target: T1, GFP-tagged PAICS (phosphoribosylaminoimidazole carboxylase, phosphoribosylaminoimidazole succinocarboxamide synthetase) (UniProt P22234); test: co-IP; HEK293T cells co-transfected with Flag-vector/GFP-vector or Flag-HDAC1/GFP-PAICS, with or without CDDP (10 µg/mL for 12 h, 2-h recovery); NETN buffer; anti-GFP IP, blot with anti-GFP and anti-Flag
T1 sequence: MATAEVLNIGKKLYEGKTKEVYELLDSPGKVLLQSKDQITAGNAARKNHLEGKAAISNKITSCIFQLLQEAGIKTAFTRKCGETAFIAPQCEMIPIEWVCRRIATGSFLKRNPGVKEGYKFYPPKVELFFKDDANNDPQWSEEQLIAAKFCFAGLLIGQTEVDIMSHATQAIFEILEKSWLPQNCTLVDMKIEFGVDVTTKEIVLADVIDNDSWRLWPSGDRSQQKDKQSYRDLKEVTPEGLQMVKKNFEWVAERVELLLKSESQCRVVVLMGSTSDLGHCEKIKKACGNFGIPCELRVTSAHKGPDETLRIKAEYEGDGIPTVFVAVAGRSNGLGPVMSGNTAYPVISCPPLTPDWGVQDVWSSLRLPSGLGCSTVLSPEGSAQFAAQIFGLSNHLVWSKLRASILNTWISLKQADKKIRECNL

[2] = molecular target: T1, GFP-tagged PAICS (phosphoribosylaminoimidazole carboxylase, phosphoribosylaminoimidazole succinocarboxamide synthetase); test: co-IP; HEK293T cells transfected with GFP-vector or GFP-PAICS, with or without CDDP (10 µg/mL for 12 h, 2-h recovery); NETN buffer (20 mM Tris-HCl pH 8.0, 0.5% Nonidet P-40, 200 mM NaCl, 1 mM EDTA); anti-GFP IP, blot with anti-HDAC1 and anti-HDAC2
[3] = molecular target: HDAC1, endogenous in SGC-7901 cells (human (endogenous in SGC-7901)) (UniProt Q13547); test: co-IP; endogenous proteins of SGC-7901 cells, with or without CDDP (10 µg/mL for 12 h, 2-h recovery); NETN buffer; IP with anti-HDAC1 or anti-HDAC2, blot with anti-PAICS, anti-HDAC1 or anti-HDAC2
[4] = molecular target: HDAC2, endogenous in SGC-7901 cells (human (endogenous in SGC-7901)) (UniProt Q92769); test: as above

Molecule: Flag-tagged HDAC1 (from UniProt Q13547 1-482) (enzyme)
binding [1]: binds

Molecule: histone deacetylase HDAC1, endogenous in HEK293T cells (from UniProt Q13547 1-482) (enzyme)
binding [2]: binds

Other lines, results leading:

binding [2]: binds
Molecule: histone deacetylase HDAC2, endogenous in HEK293T cells (from UniProt Q92769 1-488) (enzyme)

binding [3]: binds | binding [4]: binds
B1: PAICS, endogenous in SGC-7901 cells (enzyme, UniProt P22234 1-425)
chain: MATAEVLNIGKKLYEGKTKEVYELLDSPGKVLLQSKDQITAGNAARKNHLEGKAAISNKITSCIFQLLQEAGIKTAFTRKCGETAFIAPQCEMIPIEWVCRRIATGSFLKRNPGVKEGYKFYPPKVELFFKDDANNDPQWSEEQLIAAKFCFAGLLIGQTEVDIMSHATQAIFEILEKSWLPQNCTLVDMKIEFGVDVTTKEIVLADVIDNDSWRLWPSGDRSQQKDKQSYRDLKEVTPEGLQMVKKNFEWVAERVELLLKSESQCRVVVLMGSTSDLGHCEKIKKACGNFGIPCELRVTSAHKGPDETLRIKAEYEGDGIPTVFVAVAGRSNGLGPVMSGNTAYPVISCPPLTPDWGVQDVWSSLRLPSGLGCSTVLSPEGSAQFAAQIFGLSNHLVWSKLRASILNTWISLKQADKKIRECNL
